For some of these results: At least one compound was matched to its structure with a doubt left. Some of these results come from one statement about several compounds together.
system: Rats; experiment: Elevated plus-maze paradigm; assay type: in vivo, rat; details: Stress group (water-filled pool ninety seconds), 2.5 or 20 mg/kg orally one hour prior to five minute test

| Structure (SMILES) | % time in the open arms |
| --- | --- |
| CCCN(CCC)c1cc(C)nc2c(-c3cnc(N(C)C)cc3C)c(C)nn12 [Compound 53, 3-[6-(dimethylamino)-4-methyl-3-pyridinyl]-2,5-dimethyl-N,N-dipropylpyrazolo[2,3-a]-pyrimidin-7-amine] | returned to a level equal, within the error range, to the untreated group |

biological target: T1, human CRF receptors (Homo sapiens, UniProt P34998); experiment: CRF receptor radioligand binding assay ([125I]tyrosine-ovine CRF displacement); details: cells stably transfected with human CRF receptors; 2 hours at 22° C.
T1 construct: expressed in transfected cells
T1 sequence (P34998 24-415): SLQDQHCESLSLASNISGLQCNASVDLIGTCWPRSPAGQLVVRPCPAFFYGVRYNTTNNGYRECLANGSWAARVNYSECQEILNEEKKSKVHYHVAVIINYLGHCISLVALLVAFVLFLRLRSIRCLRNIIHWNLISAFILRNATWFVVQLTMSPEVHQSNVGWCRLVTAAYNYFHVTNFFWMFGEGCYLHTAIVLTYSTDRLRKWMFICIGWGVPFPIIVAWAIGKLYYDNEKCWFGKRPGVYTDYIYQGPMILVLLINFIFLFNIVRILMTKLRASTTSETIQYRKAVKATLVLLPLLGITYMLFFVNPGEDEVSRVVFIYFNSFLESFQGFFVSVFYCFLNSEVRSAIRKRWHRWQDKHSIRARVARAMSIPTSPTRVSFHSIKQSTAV

| Structure (SMILES) | Ki |
| --- | --- |
| CSc1nn2c(NC(C)C)cc(C)nc2c1-c1ccc(Cl)cc1Cl [Compound 31] | ≤ 250 nM |
| CCCCC(CO)Nc1cc(C)nc2c(-c3ccc(Cl)cc3Cl)cnn12 (stereo not shown) [Compound 60] | ≤ 250 nM |
| CCCN(CCC)c1cc(C)nc2c(-c3ncc(C(F)(F)F)cc3Cl)c(C)nn12 [Compound 101] | ≤ 250 nM |
| CCCN(CCOC)c1cc(C)nc2c(-c3ccc(OC)c(OC)c3)c(C)nn12 [Compound 117] | ≤ 250 nM |
| CCCN(CCC)c1cc(C)nc2c(-c3ncc(I)cc3C)c(C)nn12 [Compound 99] | ≤ 250 nM |
| Cc1cc(NC(C)CC(C)C)n2ncc(-c3ccc(Cl)cc3Cl)c2n1 (stereo not shown) [Compound 10] | ≤ 250 nM |

Reference: patent publication US7074797B2, “Pyrazolopyrimidines as CRF receptor antagonists” (Neurocrine Biosciences, Inc., priority 1996, dated 2006)
